# Assay results taken from PubChem BioAssay AID504648 (National Center for Advancing Translational Sciences (NCATS), 2011).
# Hit rate of the full screen: of about 390,000 compounds, about 610 (0.16%) were called active. Inconclusive means that the source gave no clear call. Such entries were picked first, then a sample of the others. Calls follow the shape of the dose curve; as a rule, active = well fitted inhibition curve with a large enough effect; inconclusive = small, poorly fitted or top-dose-only effect, or effect the other way, or another doubt; inactive = no such curve, though single readings can be large or run the other way. A potency beside an inconclusive call is a rough fit, not a confirmed value.
# Assay: Nrf2 qHTS screen for inhibitors: counterscreen for cytotoxicity
# Settings: A549 ARE-Fluc cells, CellTiter-Fluor viability, 18-24 h; activity change, negative = cytotoxicity: at 46 µM (top of the series)
# In short: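 Cytotoxicity counterscreen: CellTiter-Fluor fluorescence was measured in A549 ARE_Fluc cells after 18-24 h of compound exposure in a concentration series. The subsequent BugLite luminescent read reports ARE-luciferase activity.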
# % is scaled to controls: 0 for no effect and ±100 for the full control effect; potency is read from the fitted curve at half-maximal effect.
Structure (SMILES),Potency,"activity change, negative = cytotoxicity"
CN(C)CCNC(=O)c1ccc(Cl)c2cc3ccccc3nc12,"inconclusive: 14.6 µM [falling, partial curve, poor fit]",–
O=C(O)Cn1nc2c3c(cccc3c1=O)-c1ccccc1-2,–,inactive: -1.26%
O=C(N/N=C/c1cn(-c2cccs2)nc1-c1ccccc1)c1ccccc1O,"inconclusive: 29.1 µM [falling, single point]",–
CC(=O)N1CCc2c(sc(NC(=O)CSc3ccccc3)c2-c2nc3ccccc3s2)C1,"inconclusive: 18.4 µM [falling, partial curve, poor fit]",–
Cc1cc(NC(=O)CSc2nc(-c3ccco3)cc(C(F)(F)F)n2)n(-c2ccccc2)n1,"inconclusive: 7.31 µM [falling, partial curve]",–
Cc1csc(NC(=O)CCCC(=O)O)c1-c1nc2ccccc2s1,–,inactive: -5.88%
C=CCNC(=S)Nc1ccc2nsnc2c1,–,inactive: 8.25%
O=C(N/N=C/c1cn(CC(=O)N2CCOCC2)c2ccccc12)c1cccnc1,–,inactive: 11.5%
COc1ccc(-c2cn(-c3ccc(C)cc3)c(S(=O)(=O)CC(=O)Nc3ccc(F)cc3)n2)cc1,–,inactive: -20.2%
COc1cc(Nc2nc(SCC(=O)c3ccc(Br)cc3)nc3ccccc23)cc(OC)c1,"inconclusive: 16.4 µM [falling, single point]",–
O=C(CC1N=C2c3ccccc3N=C(SCc3cccc(Cl)c3)N2C1=O)NCc1ccc2c(c1)OCO2 (centres undefined),"inconclusive: 25.9 µM [falling, partial curve, poor fit]",–
CCN(Cc1ccccc1)S(=O)(=O)c1ccc(C(=O)N(CCCN(C)C)c2nc3c(C)c(C)ccc3s2)cc1,"inconclusive: 18.4 µM [falling, single point]",–
CCOc1ccccc1OCCOCCOc1ccccc1[N+](=O)[O-],"inconclusive: 2.06 µM [activator, partial curve, poor fit]",–
O=C(NC[C@@H]1CCCO1)c1cccc2c1C(=O)c1ccc(N3CCOCC3)cc1S2(=O)=O,"inconclusive: 23.1 µM [falling, partial curve, poor fit]",–
N#C/C(=C\C1CC=CCC1)c1nc2ccccc2[nH]1 (centres undefined),"inconclusive: 14.6 µM [falling, single point]",–
N#C/C(=C\c1ccc(-c2ccc(C(=O)O)cc2)o1)C(=O)Nc1ccccc1C(=O)O,–,inactive: -3.93%
CCCCN(C)CCCNC(=O)Cn1ncc2c3ccccc3n(Cc3ccccc3)c2c1=O,–,inactive: 3.86%
CC(=O)c1ccc(NC(=O)c2ccc3c(=O)n4c(nc3c2)CCCCC4)cc1,–,inactive: 0.801%
Cc1cccc(CN2CCC(CNC(=O)Nc3ccc(F)c(Cl)c3)CC2)c1,"inconclusive: 32.6 µM [falling, partial curve, poor fit]",–
C#CCOCCOCCOCCNc1nc(N2CCN(C(=O)CCCCCCCCCCNC(=O)[C@H](CCCCN)n3cc(C)nn3)CC2)nc(N2CCN(C(=O)CCCCCCCCCCNC(=O)[C@H](CO)n3cc(CCCSC)nn3)CC2)n1,"inconclusive: 29.1 µM [falling, single point]",–

Structure (SMILES),Potency,"activity change, negative = cytotoxicity"
COCCn1nnnc1C(c1cc2cc(C)ccc2[nH]c1=O)N1CCN(C2CCCCC2)CC1 (centres undefined),"inconclusive: 16.4 µM [falling, partial curve]",–
CC1CC(C)CN(S(=O)(=O)c2cccc(C(=O)N3C(=O)c4cccc(N)c4C3=O)c2)C1 (centres undefined),"inconclusive: 20.6 µM [activator, partial curve, poor fit]",–
Cc1ccc(NC(=O)c2ccc(Cl)c(S(=O)(=O)Nc3c(C)n(C)n(-c4ccccc4)c3=O)c2)cc1Cl,"inconclusive: 20.6 µM [falling, partial curve, poor fit]",–
CC(=O)Nc1ccc(-c2csc(NC(=O)Nc3ccccc3)n2)cc1,"inconclusive: 16.4 µM [falling, single point]",–
O=C(c1cccs1)N(C(=O)c1cccs1)c1ccc(Br)cn1,"inconclusive: 32.6 µM [falling, partial curve, poor fit]",–
COc1ccc([N+](=O)[O-])cc1NC(=O)C(C)N(C)Cc1cccc(OC)c1OC (centres undefined),–,inactive: -8.35%
O=C(CNC(=S)N(Cc1ccccc1)Cc1ccccc1F)NCc1ccc(Cl)cc1,"inconclusive: 23.1 µM [falling, partial curve]",–
CN(C)CCN(C(=O)c1ccc2c(c1)CCCC2)c1nc2cc3c(cc2s1)OCCO3,"inconclusive: 23.1 µM [falling, partial curve, poor fit]",–
COc1ccc(CNc2nc3c(-c4ccccc4)nnn3c3ccccc23)cc1,–,inactive: -1.27%
O=C1CC(c2cccc([N+](=O)[O-])c2)c2cc3c(cc2N1)CCC3 (centres undefined),"inconclusive: 23.1 µM [falling, partial curve, poor fit]",–
S=C(Nc1ccc(N2CCOCC2)cc1)Nc1ccc2snnc2c1,–,inactive: 7.27%
Cc1ccc(-n2nc3c(c2NC(=O)C(C)(C)C)CS(=O)(=O)C3)cc1,"inconclusive: 32.6 µM [falling, partial curve, poor fit]",–
CC(NC(=S)NC(=O)c1ccccc1)c1ccccc1 (centres undefined),"inconclusive: 29.1 µM [activator, partial curve, poor fit]",–
COCCCn1c(SCC(=O)Nc2ccc(C(C)=O)cc2)nc2ccccc2c1=O,"inconclusive: 1.64 µM [falling, partial curve, poor fit]",–
CCn1cc(C(=O)N2CCN(c3ccc(C)cc3)C(C)C2)c(=O)c2cc(S(=O)(=O)N3CCCC3)ccc21 (centres undefined),"inconclusive: 5.17 µM [activator, full curve, poor fit]",–
Cc1ccc(NC(=S)c2ccncc2)c(C)c1,"inconclusive: 29.1 µM [falling, single point]",–
CC(=O)Nc1ccc(NC(=O)CCCn2nc(C)c3sc4ccccc4c3c2=O)cc1,"inconclusive: 25.9 µM [falling, single point]",–
CCc1ccc(CN2CCC(n3nccc3NC(=O)c3ccccc3C)CC2)cc1,"inconclusive: 29.1 µM [falling, single point]",–
CCc1ccc(C(CNc2nc(C(F)(F)F)nc3ccccc23)N(C)C)cc1 (centres undefined),"inconclusive: 25.9 µM [falling, single point]",–

# One compound at a time (already shown). Order of values: Potency | activity change, negative = cytotoxicity
# CCN(Cc1ccccc1)S(=O)(=O)c1ccc(C(=O)N(CCCN(C)C)c2nc3c(C)c(C)ccc3s2)cc1 as listed: inconclusive: 18.4 µM [falling, single point] | –
# O=C(N/N=C/c1cn(-c2cccs2)nc1-c1ccccc1)c1ccccc1O as listed: inconclusive: 29.1 µM [falling, single point] | –
